# Test results as given in PubChem BioAssay AID2551 (National Center for Advancing Translational Sciences (NCATS), 2010).
# The chains behind the UniProt entries cited, without tags or fusion partners. Where a name states a change or a piece, a line headed by the entry shows the natural chain unless it says otherwise.
# UniProt P51450: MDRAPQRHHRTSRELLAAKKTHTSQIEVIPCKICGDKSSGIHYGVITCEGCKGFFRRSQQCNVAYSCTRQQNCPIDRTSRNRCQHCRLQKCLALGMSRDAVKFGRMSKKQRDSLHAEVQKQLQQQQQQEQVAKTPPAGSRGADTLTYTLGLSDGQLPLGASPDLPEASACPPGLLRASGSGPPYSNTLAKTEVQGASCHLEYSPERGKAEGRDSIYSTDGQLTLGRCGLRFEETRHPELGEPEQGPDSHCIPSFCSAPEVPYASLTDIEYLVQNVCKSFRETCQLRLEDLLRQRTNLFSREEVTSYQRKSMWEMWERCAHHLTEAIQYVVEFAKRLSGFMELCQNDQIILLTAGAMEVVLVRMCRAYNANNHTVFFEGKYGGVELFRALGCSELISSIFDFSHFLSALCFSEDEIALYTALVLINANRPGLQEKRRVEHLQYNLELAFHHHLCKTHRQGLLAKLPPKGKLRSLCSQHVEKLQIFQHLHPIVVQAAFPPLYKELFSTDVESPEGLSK
# In all, about 310,000 compounds went through this assay and about 17,000 (5.5%) were called active. The inconclusive results got no clear call from the source; some entries with a clear call stand among them for comparison. The call rests on the fitted dose curve; in most records, active means well fitted inhibition curve with a large enough effect; inconclusive means small, poorly fitted or top-dose-only effect, or effect the other way; inactive means no such curve, though single readings can be large or run the other way. Potencies of inconclusive entries are doubtful fits and often do not repeat.
# Biological target: Nuclear receptor ROR-gamma (Mus musculus) (UniProt P51450)
# Test: qHTS for inhibitors of ROR gamma transcriptional activity; further: nearly all actives have a fitted effect of over 60% in size
# Conditions: Drosophila S2 Gal4-RORgamma UAS-luciferase reporter, 20 h; series mostly up to 53.6 µM
# Procedure, shortened: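 In this cell-based reporter format, copper sulfate (700 uM final) drives Gal4–ROR gamma fusion expression from a metallothionein promoter in Drosophila Schneider cells; compounds preincubated 1 hr, reporter read after 20 hr at ambient temperature.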
# Potency means the concentration at half of the fitted maximal effect.
row,SMILES,Potency
1,CCN(CC)c1ccc(/C=C(\C#N)C(=O)NCc2ccco2)cc1,"inconclusive: 14.1 µM [activator, partial curve]"
2,COCC(C)n1c(SCC(=O)N2CCc3ccccc3C2)nc2ccccc2c1=O (stereo not drawn),"inconclusive: 11.2 µM [activator, single point]"
3,COc1cccc(N(CC(=O)NC2CCCC2)C(=O)CCCC(=O)Nc2ccccn2)c1,inactive
4,COc1ccc(NC(=S)NC(=O)CC(C)C)c(OC)c1,"inconclusive: 7.08 µM [inhibitor, partial curve]"
5,COC(=O)c1oc2c(c1C)C1(CCC2)SCCS1,"inconclusive: 35.5 µM [inhibitor, single point]"
6,O=C1N(Cc2cccc(Cl)c2)C[C@@H]2C[C@@H](c3c[nH]c4ccccc34)N3CCC[C@@]123,"inconclusive: 3.16 µM [activator, full curve, poor fit]"
7,Cc1ccc2cc(C=C(C#N)C#N)c(N3CCCCC3)nc2c1,inactive
8,Fc1ccc(-c2nnc(-c3ccc(Cl)cc3Cl)o2)cc1,active: 14.1 µM
9,CCCCOc1ccc(CSc2nc(C)[nH]c2[N+](=O)[O-])cc1[N+](=O)[O-],"inconclusive: 35.5 µM [inhibitor, single point]"
10,CC(=O)c1ccc(N2CCN(CCC#N)CC2)c(F)c1,inactive
11,Cc1cc(-n2c(SCC(=O)NCCC3=CCCCC3)nc3n[nH]c(C)c3c2=N)ccc1Cl,"inconclusive: 35.5 µM [inhibitor, single point]"
12,CC(=O)Nc1ccc(OC(=O)c2ccc(Br)c([N+](=O)[O-])c2)cc1,"inconclusive: 17.8 µM [inhibitor, partial curve, poor fit]"
13,Cc1ccc(NC(=O)c2cc(C)nc3ccccc23)c(C)c1,inactive
14,Cc1nc(-c2ccccc2)cc(N2CCCC2)n1,inactive
15,COC(=O)c1[nH]nc(C(=O)OC(C)(C)C)c1-c1ccccc1,"inconclusive: 22.4 µM [activator, single point]"
16,O=C(COc1ccccc1)N(Cc1ccco1)C1CCS(=O)(=O)C1 (stereo not drawn),inactive
17,Cc1ccc(SCc2nc3ccccc3[nH]2)cc1,"inconclusive: 35.5 µM [inhibitor, single point]"
18,COc1cc(OC)cc(-c2nnc(SCc3cccc(C(=O)O)c3)o2)c1,"inconclusive: 8.91 µM [inhibitor, partial curve, poor fit]"
19,CC1(C)CC2(CC(c3ccccc3F)c3cc(Cl)c(O)cc3O2)NC(=S)N1 (stereo not drawn),active: 11.2 µM
20,COc1ccc(-c2cc3nc(C)cc(C)n3n2)cc1,"inconclusive: 28.2 µM [inhibitor, single point]"
21,Cc1ccc(C(=O)O)cc1-c1ccc(/C=C2/NC(=O)N(c3ccccc3)C2=O)o1,"inconclusive: 10 µM [activator, partial curve, poor fit]"
22,Cc1nnc(N/N=C/c2ccco2)n1N,active: 11.2 µM
23,O=C(CSc1nnnn1Cc1ccccc1)c1ccccc1,"inconclusive: 1.26 µM [inhibitor, single point]"
24,COC(=O)C1=C(C)NC(=S)NC1/C=C/c1ccccc1 (stereo not drawn),active: 6.31 µM
25,COc1ccc(OCC(O)CN(CC(O)COc2ccc(OC)cc2)c2cccc(O)c2)cc1 (stereo not drawn),"inconclusive: 11.2 µM [inhibitor, single point]"

row,SMILES,Potency
1,Cc1ccsc1C(=O)OCc1nc2ccccc2c(=O)[nH]1,"inconclusive: 31.6 µM [activator, single point]"
2,CCOc1ccc(S(=O)(=O)Nc2cc(SCC(=O)O)c(O)c3ccccc23)cc1,active: 10 µM
3,COc1ccccc1CC(=O)NCCc1ccccc1,"inconclusive: 11.2 µM [activator, single point]"
4,O=C(Nc1ccccc1)c1nnsc1S(=O)(=O)c1ccc(Cl)cc1,"inconclusive: 35.5 µM [inhibitor, single point]"
5,O=C(CSc1ccc(-c2ccc(Br)cc2)nn1)N1CCOCC1,"inconclusive: 11.2 µM [activator, partial curve]"
6,Cc1cc(C)c(S(=O)(=O)N2CCN(C(=O)c3ccc4c(c3)OCO4)CC2)c(C)c1,"inconclusive: 12.6 µM [activator, single point]"
7,CC(=O)CCc1oc2ccc(NC(C)=O)cc2c1-c1ccc(C)o1,"inconclusive: 35.5 µM [inhibitor, single point]"
8,O=C(Nc1ccc(N2CCN(C(=O)c3ccccc3)CC2)c(Cl)c1)c1cccnc1,"inconclusive: 15.8 µM [inhibitor, single point]"
9,COc1ccc(NC2c3ccccc3C(=O)N2Cc2ccc3c(c2)OCO3)cc1 (stereo not drawn),"inconclusive: 15.8 µM [activator, single point]"
10,Cc1cccc(NC(=S)NCc2ccccn2)c1,active: 5.01 µM
11,O=C(Nc1nnc(COc2ccccc2F)s1)Nc1ccccc1F,inactive
12,CCOC(=O)c1ccc(NC(=O)N2CCN(C(=O)c3ccco3)CC2)cc1,inactive
13,COC(=O)c1ccc(C)c(NC(=O)C(CCSC)NC(=O)c2cc(OC)c(OC)c(OC)c2)c1 (stereo not drawn),inactive
14,O=[N+]([O-])c1ccc(N2CCNCC2)cc1Sc1nc2ccccc2[nH]1,inactive
15,CCn1c(CCNC(=O)c2ccccc2Cl)n[nH]c1=S,"inconclusive: 15.8 µM [inhibitor, single point]"
16,O=C(Nc1ccc(F)cc1)Nc1ccc(N2CCCC2)c(S(=O)(=O)Nc2ccccc2Cl)c1,"inconclusive: 28.2 µM [inhibitor, single point]"
17,Cc1onc(-c2ccccc2)c1C(=O)N1CCN(c2ccccc2)CC1,inactive
18,O=C(CSc1nnnn1C1CCCCC1)N1c2ccccc2Sc2ccccc21,inactive
19,Cc1ccc(C(=O)/C=C/C(=O)c2ccc(C)cc2)cc1,active: 5.01 µM
20,COCCn1c(-c2ccccc2Cl)nc2c(c(=O)c3ccccc3n2C)c1=O,inactive
21,O=C(Nc1nccs1)c1ccc2ccccc2n1,active: 7.08 µM
22,O=C(/C=C/c1ccccc1)Nc1nnc(SCC(=O)c2ccc3ccccc3c2)s1,inactive
23,Nc1nnc(CC(=O)N/N=C/c2cc([N+](=O)[O-])cc(Br)c2O)s1,inactive
24,COc1ccc(C(=O)N=C2SC3CS(=O)(=O)CC3N2c2ccc(N(C)C)cc2)cc1OC (stereo not drawn),"inconclusive: 22.4 µM [inhibitor, single point]"
25,Cc1cc(C)c2sc(N(CCCN(C)C)C(=O)c3ccc(Br)s3)nc2c1,"inconclusive: 35.5 µM [inhibitor, single point]"

# Laid out differently: results already given
row	SMILES	Potency
19	CC1(C)CC2(CC(c3ccccc3F)c3cc(Cl)c(O)cc3O2)NC(=S)N1 (stereo not drawn)	active: 11.2 µM
22	O=C(/C=C/c1ccccc1)Nc1nnc(SCC(=O)c2ccc3ccccc3c2)s1	inactive

# More records follow:

row,SMILES,Potency
1,O=C(CCCn1c(=O)c2ccccc2n(Cc2cccc(F)c2)c1=O)NC1CCN(Cc2ccccc2)CC1,"inconclusive: 35.5 µM [inhibitor, single point]"
2,O=C(CCCn1c(SCc2ccccc2F)nc2ccccc2c1=O)NCC1CCCO1 (stereo not drawn),"inconclusive: 14.1 µM [activator, single point]"
3,Cc1cccc(OCCCC(=O)Nc2nc3ccccc3[nH]2)c1,active: 14.1 µM
4,O=C(Nc1ccc(S(=O)(=O)N2CCOCC2)cc1)c1ccc(Cl)s1,"inconclusive: 14.1 µM [activator, partial curve]"
5,CCOC(=O)C1CCCN(C(=O)CCn2nnnc2CN2CCOCC2)C1 (stereo not drawn),inactive
6,CC1CCN(S(=O)(=O)c2cn(CC(=O)N3CC(C)CC(C)C3)c(=O)c3ccccc23)CC1 (stereo not drawn),inactive
7,c1ccc2nc3c(nc2c1)[nH]c1ccccc13,"inconclusive: 3.98 µM [activator, single point]"
8,CC(C)OC(=O)CC1C(=O)NCCN1C(=S)NC(=O)c1cccs1 (stereo not drawn),active: 2.51 µM
9,Cc1nc(NC(=O)c2ccccc2)sc1Cc1ccc2c(c1)OCO2,active: 12.6 µM
10,N#C[C@]1(S(=O)(=O)c2ccccc2)C[C@@H]2ON=C(c3cccc(Br)c3)[C@@H]2C1,"inconclusive: 1.78 µM [activator, partial curve]"
11,O=C(N/N=C/c1cccc(O)c1)c1ccccc1O,"inconclusive: 35.5 µM [inhibitor, single point]"
12,CCOC(=O)COc1cc(-n2c(=S)[nH]c3ccccc3c2=O)c(Cl)cc1Cl,"inconclusive: 22.4 µM [inhibitor, single point]"
13,COc1ccc(-c2csc(N3CCN(C(=O)c4ccccc4)CC3)n2)cc1,inactive
14,CSCCNC(=O)c1ccc2nc(C3CCCCC3)oc2c1,"inconclusive: 35.5 µM [activator, single point]"
15,Cc1cccc(C(O)(C(=O)NNc2ccc3ccccc3n2)c2cccc(C)c2)c1,active: 10 µM
16,Cc1nc(C)c(C(=O)Nc2ccccc2)s1,inactive
17,N#Cc1c(N2CCCCC2)nc(N)c2c(N)nc3c(c12)CC(c1ccccc1)O3 (stereo not drawn),"inconclusive: 7.94 µM [activator, single point]"
18,COc1ccccc1Cc1nc(-c2ccncc2)no1,"inconclusive: 10 µM [activator, single point]"
19,COc1ccc(NC(=O)N2CC[C@@]3(CCCN(C(=O)c4cc(C(F)(F)F)cc(C(F)(F)F)c4)C3)C2)cc1,"inconclusive: 22.4 µM [activator, single point]"
20,CN(CC(=O)Nc1cccc(F)c1)CC(=O)Nc1cccc(S(=O)(=O)N2CCCCCC2)c1,inactive
21,COc1ccccc1N1CCN(C(=S)Nc2ccccc2)CC1,"inconclusive: 35.5 µM [inhibitor, single point]"
22,O=C(Cn1c(=O)sc2ccccc21)OC(CCl)CCl,"inconclusive: 35.5 µM [activator, single point]"
23,Cc1nn(Cc2ccc(F)cc2)c2sc(C(=O)Nc3ccc(N4CCOCC4)cc3N3CCOCC3)cc12,"inconclusive: 35.5 µM [activator, single point]"
